Results from patent US7704956B2, “Glutathione-based delivery system” (Industrial Technology Research Institute, priority 2005, dated 2010).
Part of at least one peptide drawing is inferred or uncertain, most often the ends.

Assays:
[1] = system: heat-induced pain; experiment: Hot-plate test (55° C.) after intravenous injection; assay type: in vivo, mouse; settings: endomorphin-1, intravenous, 7.5 mg/kg
[2] = system: formalin-induced inflammatory pain; experiment: Formalin test of endomorphin-1 liposome; assay type: in vivo, mouse; settings: 1% formalin in right thenar, drug intravenous, 7.5 mg/kg

NC(=O)[C@H](Cc1ccccc1)NC(=O)[C@H](Cc1c[nH]c2ccccc12)NC(=O)[C@@H]1CCCN1C(=O)[C@@H](N)Cc1ccc(O)cc1 [endomorphin-1 solution, endomorphin-1]
analgesic effect (hot plate) [1]: no analgesic effect occurred | analgesic effect (formalin test) [2]: no analgesic effect occurred
